Measured values published in PMC7804430, “Synthesis and tumour cell uptake studies of gadolinium(III)–phosphonium complexes” (Scientific Reports, 2021).

Assay: Competition (challenge) stability assay with xylenol orange at acidic pH
Format: physicochemical
Settings: 10 concentrations 2.0–250 μM
Description: In this work, the relative stability of complexes 6 and 7 were compared to the previously-reported archetypal Gd(III)-DO3A triphenylphosphonium complex (11, shown in Fig. 2) at acidic pH by means of a competition (challenge) assay using the lanthanoid(III) ion indicator xylenol orange[32]. These assays were performed under mildly acidic conditions to ensure the phenolic hydroxyl was protonated prior to chelation.
Solution stability assays were performed using the method described by Barge et al.[32]. Initially an acetate buffer solution (50 mM) was prepared, a portion of which was adjusted to pH 5.8 using NaOH, while other portions were adjusted to pH 5.0, 4.0, or 3.0 using glacial acetic acid. Xylenol orange (5.81 mg) was dissolved in the pH 5.8 acetate buffer (48.4 mL) to give a 10 × concentrated stock solution. These solutions were treated as light sensitive, work was conducted in minimal light and solutions were covered in foil.
25 mM stock solutions of each GdCl3, […] 11 were prepared in the various buffer solutions. […] The plates were agitated in a plate reader and allowed to equilibrate for 24 h. […] The plates were again agitated in a plate reader and allowed to equilibrate for 15 min at RT. The absorbance values were then determined at both 573 nm and 433 nm by means of a BMG LABTECH POLARstar Omega, UV Spectrometer, and the data plotted and processed using Graphpad Prism 7.

[Cl][Gd]([Cl])[Cl] [GdCl3]
Gradient (slope of line of best fit) (pH 5.0): 3.83 × 10^−2 | Gradient (slope of line of best fit) (pH 5.8): 3.57 × 10^−2
